# For at least one entry, the source does not settle the construct or the ends of the probe. For part of these data: At least one verdict was read from the data and is not stated in words by the source. Tags and fusion partners may be left off the protein sequences shown.
# Legend:
# [1] = target: T1, Reb1 (Saccharomyces cerevisiae) (UniProt P21538); test: EMSA; conditions: naked DNA; 11.87 mM HEPES-KOH pH 7.9, 3 mM Tris-Cl, 96.67 mM NaCl, 3.33 mM KCl, 5.3 mM MgCl2, 0.13 mM Mg acetate, 1.33 uM ZnCl2, 0.05% NP-40, 10% glycerol, 100 ug/mL BSA, 2 mM DTT; recombinant protein; protein details: His; label: 5' IRDye700 strand 1
# T1 sequence (looked up, limits assumed): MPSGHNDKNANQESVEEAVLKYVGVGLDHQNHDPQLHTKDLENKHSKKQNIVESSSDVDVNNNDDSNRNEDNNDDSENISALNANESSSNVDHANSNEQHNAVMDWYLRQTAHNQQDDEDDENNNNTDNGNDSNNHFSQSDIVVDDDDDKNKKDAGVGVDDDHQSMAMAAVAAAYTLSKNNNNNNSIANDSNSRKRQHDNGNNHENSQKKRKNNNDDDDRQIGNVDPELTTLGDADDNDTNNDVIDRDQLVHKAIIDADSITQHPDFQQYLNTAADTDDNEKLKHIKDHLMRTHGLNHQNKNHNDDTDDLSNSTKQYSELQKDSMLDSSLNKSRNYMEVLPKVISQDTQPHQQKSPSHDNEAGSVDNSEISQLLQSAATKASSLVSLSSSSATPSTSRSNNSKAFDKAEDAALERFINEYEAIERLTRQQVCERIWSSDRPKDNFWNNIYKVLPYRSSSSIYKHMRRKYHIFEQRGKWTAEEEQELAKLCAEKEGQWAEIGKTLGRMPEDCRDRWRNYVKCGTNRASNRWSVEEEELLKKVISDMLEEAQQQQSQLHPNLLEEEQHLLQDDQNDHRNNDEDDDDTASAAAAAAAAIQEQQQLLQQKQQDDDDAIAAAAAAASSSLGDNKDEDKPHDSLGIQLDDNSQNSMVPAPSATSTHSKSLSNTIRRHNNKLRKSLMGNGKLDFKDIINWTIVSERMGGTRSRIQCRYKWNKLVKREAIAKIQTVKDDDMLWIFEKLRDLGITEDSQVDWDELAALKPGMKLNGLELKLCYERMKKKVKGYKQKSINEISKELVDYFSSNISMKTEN
# [2] = target: T2, Abf1 (Saccharomyces cerevisiae) (UniProt P14164); test: EMSA; conditions: naked DNA; 11.87 mM HEPES-KOH pH 7.9, 3 mM Tris-Cl, 96.67 mM NaCl, 3.33 mM KCl, 5.3 mM MgCl2, 0.13 mM Mg acetate, 1.33 uM ZnCl2, 0.05% NP-40, 10% glycerol, 100 ug/mL BSA, 2 mM DTT; recombinant protein; protein details: His; label: 5' IRDye700 strand 1
# T2 sequence (looked up, limits assumed): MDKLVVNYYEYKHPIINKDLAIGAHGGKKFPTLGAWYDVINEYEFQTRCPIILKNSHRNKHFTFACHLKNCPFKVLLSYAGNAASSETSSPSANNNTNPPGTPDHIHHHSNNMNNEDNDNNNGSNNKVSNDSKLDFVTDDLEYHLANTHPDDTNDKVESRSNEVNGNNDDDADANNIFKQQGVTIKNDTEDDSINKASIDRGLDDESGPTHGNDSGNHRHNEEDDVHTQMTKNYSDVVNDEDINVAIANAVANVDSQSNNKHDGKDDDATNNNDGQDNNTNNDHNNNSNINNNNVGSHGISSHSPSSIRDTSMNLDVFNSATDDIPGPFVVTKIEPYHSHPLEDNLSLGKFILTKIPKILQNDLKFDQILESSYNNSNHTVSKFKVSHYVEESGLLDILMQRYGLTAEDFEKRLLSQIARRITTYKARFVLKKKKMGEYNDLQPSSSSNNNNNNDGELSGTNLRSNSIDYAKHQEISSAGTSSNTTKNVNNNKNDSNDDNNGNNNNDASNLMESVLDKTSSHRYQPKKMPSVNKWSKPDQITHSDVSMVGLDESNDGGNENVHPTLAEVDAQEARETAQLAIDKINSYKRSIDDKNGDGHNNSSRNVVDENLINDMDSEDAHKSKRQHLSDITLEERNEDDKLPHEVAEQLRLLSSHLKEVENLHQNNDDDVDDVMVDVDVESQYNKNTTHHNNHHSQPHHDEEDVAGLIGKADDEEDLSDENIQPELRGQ
# [3] = target: T2, Abf1 (Saccharomyces cerevisiae); test: competition with a labelled probe; conditions: unlabeled chaser 100x, efficient competitor for all Abf1 probes; 11.87 mM HEPES-KOH pH 7.9, 3 mM Tris-Cl, 96.67 mM NaCl, 3.33 mM KCl, 5.3 mM MgCl2, 0.13 mM Mg acetate, 1.33 uM ZnCl2, 0.05% NP-40, 10% glycerol, 100 ug/mL BSA, 2 mM DTT; recombinant protein; protein details: His
sequence,measurement,setting,value
ACAGGATGTATATATCTGACACGTGCCTGGAGACTAGGGAGTAATCCCCTTGGCGGTTAAAACGCGGGGGACAGCGCGTACGTGCGTTTAAGCGGTGCTAGAGCTGTCTACGACCAATTGAGCGGCCTCGGCACCGGGATTCTCCAGGGCGGCCGGCCGGGTAACGCATCACCATGGTGATGACCGCGGACCTGCAGGCATGCAAGCTTGAGTATTCTATAGTGTCA (double strand) [G-GC naked DNA probe],binding result,[1],binds
ACAGGATGTATATATCTGACACGTGCCTGGAGACTAGGGAGTAATCCCCTTGGCGGTTAAAACGCGGGGGACAGCGCGTACGTGCGTTTAAGCGGTGCTAGAGCTGTCTACGACCAATTGAGCGGCCTCGGCACCGGGATTCTCCAGGGCGGCCGCTTATCGTATAAAGTGATAGGGTGATGACCGCGGACCTGCAGGCATGCAAGCTTGAGTATTCTATAGTGTCA (double strand) [A3G naked DNA probe],binding result,[2],binds
GGCCGCTTATCGTATAAAGTGATAGGGTGATGACCGCGGACCTGCA / GGTCCGCGGTCATCACCCTATCACTTTATACGATAAGC [Abf1 A3G chaser],binding result,[3],binds

# — article PMC12305957
